Reference: PubChem BioAssay AID1259308 (NCATS, 2017)
The deposit covers about 59,000 reagents; shown is a random part of them. About 1,510 of them (2.6%) were called active. 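Calls use total luciferase alone and ignore viability, so some active siRNAs may act by altering cell number.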 A number with no mark means an inactive call. Reagents against one gene are numbered here.

Assay: 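Knock-downs that increase output of a recombinant reporter protein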 (primary screen)
System: human HEK293 embryonic kidney cells stably expressing firefly luciferase (HEK-CMV-Luc2-Hygro)
Reagent: single siRNA against human genes, 0.8 pmol siRNA per well
Time to read-out: 72 h
Measured: 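Reporter luminescence and viable-cell signal on separate replicate plates, given as percent of non-targeting control and median/MAD z-scores, plus per-cell luciferase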
Direction: total luciferase, z-score and total luciferase, % of control: higher = more reporter protein produced; luciferase per cell, z-score: higher = more reporter output per viable cell; viable cells, % of control: higher = more viable cells
Rule for the call: 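An siRNA counts as active if its total luciferase robust z-score exceeds 3; genes with two or more such siRNAs out of three were retested with fresh siRNAs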
Calls: active = raised luciferase; inactive = no rise

no.	target	reagent no.	total luciferase, z-score	total luciferase, % of control	luciferase per cell, z-score	viable cells, % of control
1	RING1 (GeneID 6015)	1	1.27	107	1.04	91
2	RING1 (GeneID 6015)	2	-0.0287	81.3	0.372	82.4
3	RING1 (GeneID 6015)	3	4.87 (active)	179	5.21	50.6
4	BCAP29 (GeneID 55973)	1	0.0893	83.7	-0.133	96.8
5	BCAP29 (GeneID 55973)	2	0.154	85	-0.0846	97.1
6	BCAP29 (GeneID 55973)	3	1.42	110	1.23	89
7	GLE1 (GeneID 2733)	1	1.71	116	3.51	51.3
8	GLE1 (GeneID 2733)	2	-0.0908	80.1	-0.283	96.4
9	GLE1 (GeneID 2733)	3	-2.31	36	-1.88	66
10	ST13 (GeneID 6767)	1	1.21	106	1.2	86.3
11	ST13 (GeneID 6767)	2	-0.595	70	-0.644	92.7
12	ST13 (GeneID 6767)	3	0.448	90.8	0.143	97.7
13	CTCFL (GeneID 140690)	1	-0.363	74.7	-0.168	87.2
14	CTCFL (GeneID 140690)	2	2.41	130	2.13	82.8
15	CTCFL (GeneID 140690)	3	2.33	128	2.39	76.5
16	VCPIP1 (GeneID 80124)	1	0.7	95.8	0.527	93.2
17	VCPIP1 (GeneID 80124)	2	-1.61	49.8	-1.42	81
18	VCPIP1 (GeneID 80124)	3	0.0575	83	-0.595	109
19	PICK1 (GeneID 9463)	1	-1.35	55	0.257	57.4
20	PICK1 (GeneID 9463)	2	0.604	93.9	0.204	99.4
21	PICK1 (GeneID 9463)	3	-0.402	73.9	-0.51	94.4
22	NKAIN2 (GeneID 154215)	1	-0.468	72.6	-0.489	92.3
23	NKAIN2 (GeneID 154215)	2	-0.0536	80.8	0.256	84.4
24	NKAIN2 (GeneID 154215)	3	0.229	86.4	0.477	85.2

Not a retest: 6 of the entries above.
no.	target	reagent no.	total luciferase, z-score	total luciferase, % of control	luciferase per cell, z-score	viable cells, % of control
13	CTCFL (GeneID 140690)	1	-0.363	74.7	-0.168	87.2
14	CTCFL (GeneID 140690)	2	2.41	130	2.13	82.8
15	CTCFL (GeneID 140690)	3	2.33	128	2.39	76.5
16	VCPIP1 (GeneID 80124)	1	0.7	95.8	0.527	93.2
17	VCPIP1 (GeneID 80124)	2	-1.61	49.8	-1.42	81
18	VCPIP1 (GeneID 80124)	3	0.0575	83	-0.595	109

More records:
no.	target	reagent no.	total luciferase, z-score	total luciferase, % of control	luciferase per cell, z-score	viable cells, % of control
25	KCNK10 (GeneID 54207)	1	1.64	114	0.754	105
26	KCNK10 (GeneID 54207)	2	-0.403	73.9	-0.945	106
27	KCNK10 (GeneID 54207)	3	-1.04	61.3	-1.03	89.7
28	PIP5KL1 (GeneID 138429)	1	1.1	104	1.49	78.2
29	PIP5KL1 (GeneID 138429)	2	3.19 (active)	145	2.38	86.9
30	PIP5KL1 (GeneID 138429)	3	0.732	96.4	0.77	88
31	PRX (GeneID 57716)	1	-0.782	66.3	-1.03	97.1
32	PRX (GeneID 57716)	2	-0.505	71.8	-0.0376	81.1
33	PRX (GeneID 57716)	3	-0.326	75.4	-0.342	92.2
34	CHERP (GeneID 10523)	1	4.37 (active)	169	3.54	74.2
35	CHERP (GeneID 10523)	2	2.96	141	2.9	73.3
36	CHERP (GeneID 10523)	3	-0.0563	80.8	-0.227	95.8
37	AMELX (GeneID 265)	1	1.6	114	1.68	81.6
38	AMELX (GeneID 265)	2	0.156	85	0.551	82.1
39	AMELX (GeneID 265)	3	0.115	84.2	0.427	84
